The values below come from PMC10691036.

Amino acid sequences for entries named in this document (tags omitted).
UniProt Q96DH6: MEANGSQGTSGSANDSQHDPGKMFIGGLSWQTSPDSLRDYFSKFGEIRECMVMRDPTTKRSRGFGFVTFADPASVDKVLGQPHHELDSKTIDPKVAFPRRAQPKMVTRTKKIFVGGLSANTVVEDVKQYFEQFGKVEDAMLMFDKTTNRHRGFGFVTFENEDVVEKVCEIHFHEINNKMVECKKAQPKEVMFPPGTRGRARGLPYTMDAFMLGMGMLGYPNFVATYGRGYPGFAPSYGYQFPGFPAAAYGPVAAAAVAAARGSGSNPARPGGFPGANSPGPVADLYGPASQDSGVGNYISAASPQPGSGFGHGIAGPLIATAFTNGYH
UniProt P04792: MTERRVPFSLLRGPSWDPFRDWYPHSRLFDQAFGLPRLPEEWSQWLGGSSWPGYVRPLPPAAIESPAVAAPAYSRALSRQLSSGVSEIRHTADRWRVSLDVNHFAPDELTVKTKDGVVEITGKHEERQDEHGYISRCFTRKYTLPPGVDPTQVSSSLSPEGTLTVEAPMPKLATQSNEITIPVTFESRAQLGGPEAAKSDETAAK

The assay has as its target Musashi-2 (MSI2) (human (endogenous in SW620, LOVO, HEK293T)) (UniProt Q96DH6). Put plainly: co-IP; cell lysate supernatants (SW620, LOVO, HEK293T) precipitated with 2 ug MSI2 antibody (Abcam ab76148) or control IgG for 8 h at 4 C, Protein A/G magnetic beads 6 h at 4 C, five washes with IP buffer, Western blot. (In general: A western blot detects proteins with antibodies after separation by electrophoresis.)

Results are given in words; binding and its absence hold for the method and conditions named. Binding seen in cells or lysates may run through a third protein.

Turning to HSPB1 (from UniProt P04792 1-205), the binding result is “no binding”.
